PubChem BioAssay AID1259424 – University of Nebraska Medical Center, 2018
Aim: 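Rank knockdowns across the genome by resemblance to the KSR1 depletion profile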 (primary screen). Cell system: human HCT116 colon cancer cells. Reagent: siRNA pool against human genes, 50 nM. Detection: 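Log2 levels of six mRNAs (branched-DNA multiplex), adjusted by two reference genes and the non-targeting median, then scored against the average KSR1 knockdown pattern as Pearson r and euclidean distance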. Direction: mean correlation with KSR1 profile: higher = expression change more like KSR1 knockdown.
The deposit covers about 14,000 reagents; below is a part drawn at random. 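Higher correlation or smaller distance means closer resemblance to KSR1 loss; control wells, including KSR1 knockdowns, recur on many plates.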 Some reagents were tested in more than one well and are listed for each. Not all columns of the deposit are shown. Reagent sequences are not shown. Not stated in the record: the time to read-out.

HNRNPM | mean correlation with KSR1 profile: -0.263
TFF2 | mean correlation with KSR1 profile: 0.2
FAM184A | mean correlation with KSR1 profile: 0.714
SPEG | mean correlation with KSR1 profile: -0.364
SPEG | mean correlation with KSR1 profile: 0.246
RHOG | mean correlation with KSR1 profile: -0.123
SHTN1 | mean correlation with KSR1 profile: -0.715
GHR | mean correlation with KSR1 profile: -0.504
AARS2 | mean correlation with KSR1 profile: 0.0462

Entries above whose target name begins with S or s:
SPEG | mean correlation with KSR1 profile: -0.364
SPEG | mean correlation with KSR1 profile: 0.246
SHTN1 | mean correlation with KSR1 profile: -0.715

The listing continues:
OGFR | mean correlation with KSR1 profile: -0.0634
PPY | mean correlation with KSR1 profile: 0.25
THADA | mean correlation with KSR1 profile: -0.246
ITSN2 | mean correlation with KSR1 profile: 0.377
RIBC2 | mean correlation with KSR1 profile: -0.45
CDC25B | mean correlation with KSR1 profile: -0.601
PTH | mean correlation with KSR1 profile: 0.615
RBM10 | mean correlation with KSR1 profile: -0.839
PDZK1 | mean correlation with KSR1 profile: -0.312
PRM2 | mean correlation with KSR1 profile: -0.55
S1PR5 | mean correlation with KSR1 profile: 0.782
CAD | mean correlation with KSR1 profile: -0.227
NXN | mean correlation with KSR1 profile: 0.124
GALR3 | mean correlation with KSR1 profile: 0.647
HOXC5 | mean correlation with KSR1 profile: 0.0454
TPSG1 | mean correlation with KSR1 profile: -0.214
RNASEL | mean correlation with KSR1 profile: 0.454
GLIPR1L1 | mean correlation with KSR1 profile: 0.79
FABP1 | mean correlation with KSR1 profile: -0.0744
